Test results from PubChem BioAssay AID1259415 (National Center for Advancing Translational Sciences (NCATS), 2018).
Hit rate of the full screen: of about 410,000 compounds, about 18,000 (4.4%) were called active. The shares of active, inactive and inconclusive entries below differ from those in the screen. No stated cut-off is given here; in the data, active means activity change below about -60%; inconclusive means no clear call, values can overlap the other calls; inactive means above about -39%.

Assay: qHTS Assay for inhibitors of the human cytomegalovirus (HCMV)
Settings: HFF cells, HCMV-luciferase reporter, 72 h; at 57.5 µM; active compounds read low
In short: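 Screen run at 2 compound doses on HFFs infected with reporter HCMV, MOI 1 PFU/cell. Luciferase activity from cell lysates at 72 h post infection gave inhibition relative to buffer-only and Salinomycin wells.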
On the % scale 0 is the no-effect control and ±100 the full control effect.

Structure (SMILES) | activity change, negative = inhibition
Cc1cccc(NC(=S)N/N=C2\CC(C)(C)Oc3ccc(O)cc32)c1 | inactive: -16.2%
O=C(Nc1ccc(NC(=O)c2cccs2)c(Cl)c1)c1cccs1 | inconclusive: -54%
NC1=NC[C@H](Cc2ccc(O)cc2)N1CCc1cccc2ccccc12 | inconclusive: -50.5%
Cc1ccsc1CN1CCc2nc(Nc3ccccc3)ncc2C1 | inactive: 55.4%
Cc1ccc(SCn2nnc3ccccc3c2=O)c(C)c1 | inconclusive: -40%
N#C/C(=C\c1ccccc1)c1nc2ncccc2[nH]1 | inactive: 44.5%
CCOC(=O)C1(Cc2ccccc2)CCN(Cc2cnn(CC)c2)CC1 | inconclusive: -40.6%
Cc1nc2c(C)cccc2c2c1CCN2c1ccccc1F | inconclusive: -54.5%
CCOC(=O)C1=CCN(S(=O)(=O)c2ccccc2Br)C1c1cccc(F)c1 (configuration not stated) | inconclusive: -40.9%
COc1ccc(C(=O)NCc2nnc(SCC(=O)Nc3cc(OC)ccc3OC)o2)cc1 | inconclusive: -42.3%
O=C(NC1CCCCC1)C1CCN(C(=O)NCc2ccccc2)CC1 | inactive: 4.07%
CC1(CCC(=O)N2CCCC(N3CCN(c4ccc(F)cc4)CC3)C2)CC1 (configuration not stated) | inactive: -8.16%
O=C(N/N=C\c1cc(Br)ccc1O)c1ccc(S(=O)(=O)N2CCCCC2)cc1 | active: -100%
CCCOP(=O)(OCCC)C(Nc1ccc(C(=O)O)cc1)c1ccccc1 (configuration not stated) | inconclusive: -42.3%
CCC(C)NC(=O)C1CCN(S(=O)(=O)c2ccc3c(c2)CCCN3C(C)=O)CC1 (configuration not stated) | inactive: 4.24%
CCn1c(COc2ccc(Cl)cc2)nnc1SCc1nc2ccccc2[nH]1 | inconclusive: -58.2%
CCc1ccc(C(CNc2nc(C(F)(F)F)nc3ccccc23)N(C)C)cc1 (configuration not stated) | inconclusive: -55.7%
CSc1ccccc1NC(=O)c1ccccn1 | inactive: 15.5%
CCc1ccc(CN2CCC(n3nccc3NC(=O)c3ccccc3C)CC2)cc1 | inactive: -34.5%

Structure (SMILES) | activity change, negative = inhibition
CCC(C)c1ccc(S(=O)(=O)N2CCN(C(C)CC(=O)O)CC2)cc1 (configuration not stated) | inconclusive: -43.8%
COc1ccc(CCNC(=O)Cn2c(=O)n(Cc3ccco3)c(=O)c3ccc(Cl)cc32)cc1OC | inconclusive: -50.9%
O=C(CSCn1nnc2c(=O)[nH]c(Cc3ccc(F)cc3)nc21)Nc1cccc(C(F)(F)F)c1 | inactive: 13%
COc1cccc(C2NC(=O)c3sc(=S)n(-c4ccccc4)c3N2)c1 (configuration not stated) | inconclusive: -58.5%
CCOc1ccc(NC(=O)c2ccccc2NC(=O)CNC2CCCC(C)C2C)cc1 (configuration not stated) | active: -65.6%
c1ccc(Sc2ncnc3c2oc2ccccc23)nc1 | inconclusive: -55.6%
COc1ccc(CNS(=O)(=O)NCc2ccc(OC)c(OC)c2)cc1 | inconclusive: -43.7%
Cc1ccc(S(=O)(=O)N(C)C)cc1NC(=O)C1CCCN(C(=O)c2ccc(Cl)cc2)C1 (configuration not stated) | inconclusive: -48.9%
COc1ccc(COCC(O)CN2CCC(CN3C(=O)c4cccc5cccc(c45)C3=O)CC2)cc1OC (configuration not stated) | inactive: 0.182%
COc1ccc(C2CC(c3ccc(F)cc3)n3nc(NC(=O)c4ccco4)nc3N2)cc1 (configuration not stated) | inactive: -17.5%
O=C(/C=C/c1ccc(Cl)cc1Cl)c1ccc[nH]1 | inactive: 44%
O=c1cc(CN2CCN(c3ccccc3)CC2)c2ccccc2o1 | inconclusive: -43.6%
COc1ccccc1Cn1c(=S)[nH]c2ccc(Br)cc2c1=O | active: -86.2%
C=CCNc1cnn(-c2ccccc2)c(=O)c1Cl | inactive: -32.9%
O=C(Oc1c(Br)cc(Br)c2cccnc12)N1CCCCC1 | inconclusive: -52.4%
COc1ccc(S(=O)(=O)NCc2ccc(C(=O)NCCCN3CC(C)CC(C)C3)cc2)cc1 (configuration not stated) | inactive: -33.4%
COc1ccc(CNC(=O)C(c2cccs2)N(C(=O)c2csnn2)C2CC2)cc1 (configuration not stated) | inconclusive: -48.1%
O=C(Cc1ccccc1)Nc1sc2c(c1C(=O)Nc1ccc(Br)cc1)CCC2 | inactive: 5.03%
COc1ccc(-c2nnc(SC(C(=O)c3c[nH]c4ccccc34)c3ccccc3)n2N)cc1OC (configuration not stated) | inactive: -27.5%

3 entries out of the list, ordered by number of heavy atoms, smallest number first:
Structure (SMILES) | activity change, negative = inhibition
O=C(/C=C/c1ccc(Cl)cc1Cl)c1ccc[nH]1 | inactive: 44%
O=C(Oc1c(Br)cc(Br)c2cccnc12)N1CCCCC1 | inconclusive: -52.4%
COc1ccccc1Cn1c(=S)[nH]c2ccc(Br)cc2c1=O | active: -86.2%

Additional results follow:

Structure (SMILES) | activity change, negative = inhibition
CCOC(=O)c1nn(-c2ccc(Cl)cc2)c2nnc(Cc3ccc(C)cc3)c(=O)n12 | inconclusive: -41.1%
COc1ccc(Cn2cnc3c(N)c(C)c(C)cc32)cc1 | inconclusive: -42%
NS(=O)(=O)c1ccc(Nc2nc(-c3cccc([N+](=O)[O-])c3)cs2)cc1 | inconclusive: -57.7%
CN1OC[C@@H]2CN(Cc3ccc(Cl)cc3)[C@H](c3ccc(-n4ccnc4)cc3)C[C@@H]21 | inactive: -5.96%
CC(=O)c1c2c(cc3ccc(N(C)C)cc13)CCC2 | inconclusive: -50.8%
COc1ccc(C2=COc3ccccc3C(=O)N2)cc1 | inconclusive: -46.9%
COC(=O)c1nn(-c2ccc3c(c2)CCN3C(C)=O)cc1O | inconclusive: -42.9%
COc1ccc(CC(=O)Nc2sc3c(c2C(=O)Nc2ccccc2)CCCCC3)cc1 | inconclusive: -56.6%
OCCc1c[nH]c2ccccc12 | inactive: 65.8%
Cc1ccc(S(=O)(=O)c2nc(S(C)(=O)=O)sc2N2CCCCC2C)cc1 (configuration not stated) | active: -75.2%
CC1CCCCC12NC(=O)N(CC(=O)NCc1ccc3c(c1)OCO3)C2=O (configuration not stated) | active: -80.4%
NC(N)=NS(=O)(=O)c1ccc(NC(=S)NC(=O)c2ccncc2)cc1 | inactive: -6.37%
CC(=O)Nc1ccc(-c2csc(NC(=O)Nc3ccccc3)n2)cc1 | active: -99.1%
COc1ccc(C(=O)NC(=O)Nc2cc(C)ccn2)cc1 | inconclusive: -55.2%
C=CCC1(C#N)C(SC)=NC2=C(C(=O)CC(C)(C)C2)C1c1ccc(Br)cc1 (configuration not stated) | inconclusive: -50.5%
O=C(Nc1ccc(N2CCN(C(=O)c3ccccc3)CC2)c(Cl)c1)c1ccc(Br)o1 | active: -67.5%
CCNc1nc(NCc2ccc(F)cc2)c2cnn(C)c2n1 | inconclusive: -41%
CC1=C(C(=O)Nc2cccc(Cl)c2C)C2(CCCCCC2)OC1=O | inconclusive: -46%
COC(=O)[C@]12CCCCC=C1N(Cc1ccc3c(c1)OCO3)C(=O)[C@H](CC(=O)N1CCCCC1)C2 | active: -69.7%
